# Results from article PMC7819943, “Rice protein-binding microarrays: a tool to detect cis-acting elements near promoter regions in rice”.
# By UniProt entry, the sequences of proteins in these tests, tags left out.
# UniProt Q0JBA9, entry or part of it: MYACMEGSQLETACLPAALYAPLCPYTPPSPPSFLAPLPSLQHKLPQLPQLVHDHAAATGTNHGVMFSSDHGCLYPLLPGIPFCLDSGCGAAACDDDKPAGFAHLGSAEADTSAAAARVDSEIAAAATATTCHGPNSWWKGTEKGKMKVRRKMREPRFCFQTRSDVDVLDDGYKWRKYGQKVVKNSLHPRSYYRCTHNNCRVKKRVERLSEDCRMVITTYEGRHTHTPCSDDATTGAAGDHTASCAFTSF
# The list shows a part of the results.
# Molecular target: OsWRKY34 (Oryza sativa, UniProt Q0JBA9 1-250)
# Test: protein-binding microarray (RPBM); PBS, 2% BSA, 51.3 ng/ul salmon testes DNA, 50 uM zinc acetate, 200 nM TF, 25 C, 1 h; high values mean tight binding
# Settings: protein: recombinant; tags: N-terminal polyhistidine and DsRed monomer fusion (pET32a); label: CyDye5-dUTP incorporated in the synthesized complementary strand; 3' TTTTT single-stranded linker to array surface; dsDNA, one strand shown
# Outline: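 Binding signal here means per-feature fluorescence intensity in arbitrary units. The values were read on an Axon 4000B scanner after a custom Agilent array, double-stranded by primer extension with Cy5-dUTP, was incubated with 200 nM protein at 25 °C for 1 h in PBS with 2% BSA, salmon testes DNA and 50 µM zinc acetate, then washed. The proteins were transcription factors with an N-terminal polyhistidine tag and DsRed, expressed in E. coli BL21-CodonPlus and purified on Ni–NTA.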
row,Sequence,binding signal
1,CGTTAATTATTTTCAGTTTATTTCATGTTTTTTACAATTTCGGAGTCACCTAGTGCAG,8840 fluorescence intensity (a.u.)
2,ATGGTTCTAGTATTACGTGGCGCCTATGTGGCAGTGGCTCCGGAGTCACCTAGTGCAG,8670 fluorescence intensity (a.u.)
3,CACCACCAGTTCAGATATGCTGGCACCTCCCATCCAAAACCGGAGTCACCTAGTGCAG,8330 fluorescence intensity (a.u.)
4,GACCACCGCCCGCGCCGCCGCGCAGCTGCCGACCACCGTCCGGAGTCACCTAGTGCAG,9360 fluorescence intensity (a.u.)
5,TGTTCCTCGTGGTCTCCTCGGCTTCTCTCGCAATCTTCTGCGGAGTCACCTAGTGCAG,11800 fluorescence intensity (a.u.)
6,TTATGTCACTTGTATGTGGATTAACTCTCAAGCCCCTCATCGGAGTCACCTAGTGCAG,8090 fluorescence intensity (a.u.)
7,TGTATTTGCTACCGTTTTCCAATATGTACCGTCATGTTTCCGGAGTCACCTAGTGCAG,8720 fluorescence intensity (a.u.)
8,ATGTGAACTAAACACACCCATACGTTTTGTCTGTGCTAATCGGAGTCACCTAGTGCAG,8160 fluorescence intensity (a.u.)
9,GATCATTTCGGTTCAGGTTTTCGTTCTACTGTGCCGAGTTCGGAGTCACCTAGTGCAG,8730 fluorescence intensity (a.u.)
10,ACTTCATTGACGGTTTGACACTAATCCTAACATTCACATTCGGAGTCACCTAGTGCAG,8120 fluorescence intensity (a.u.)
11,TTTGCACAATTCTTCTTCTGGATGCCTGCAGCTGCAGCTGCGGAGTCACCTAGTGCAG,10900 fluorescence intensity (a.u.)
12,TTTAGGTGTGTTTGGTTGAGAGGCTAGAAGGGATGGGATGCGGAGTCACCTAGTGCAG,8230 fluorescence intensity (a.u.)
13,TTTTTATTCCATTTTATTTTACGCGCCGCAACGCAACTTCCGGAGTCACCTAGTGCAG,11400 fluorescence intensity (a.u.)
14,TTATCGCCTCGCCTCTCGATCCCTCTCGTTCTTTCTCGCCCGGAGTCACCTAGTGCAG,8430 fluorescence intensity (a.u.)
15,GATTGGGTTGTTTGCGGGGCTAAGTTCCTAATTTTAATGACGGAGTCACCTAGTGCAG,11500 fluorescence intensity (a.u.)
16,TCGTCTCTTTCCCTTTTGTTCTTCTTCGCCAGATCCCTTGCGGAGTCACCTAGTGCAG,8430 fluorescence intensity (a.u.)
17,GTGATATTCTCTCTTTTTTACAAGTCATCCAAAATTTCATCGGAGTCACCTAGTGCAG,8510 fluorescence intensity (a.u.)
18,ATCATTCATACCTAATATTGTGCTCGTGTTGTAAAAATTACGGAGTCACCTAGTGCAG,8270 fluorescence intensity (a.u.)
19,TGGAATCTACCACTGCCTCATCCAGTTCAATTCATTGCTTCGGAGTCACCTAGTGCAG,8930 fluorescence intensity (a.u.)
20,ATCCTCACGTAATATACACCTTCGTACCATAATATAATAACGGAGTCACCTAGTGCAG,8250 fluorescence intensity (a.u.)
21,AAATCTTGGGTTTATGTGGGCGACGATGTCGGTTTGGAAACGGAGTCACCTAGTGCAG,8060 fluorescence intensity (a.u.)

row,Sequence,binding signal
1,TGCTTCCAGTGTTGATAGTTATGCCATATACCGCTTAAGCCGGAGTCACCTAGTGCAG,8320 fluorescence intensity (a.u.)
2,CTCGCGATTTCTCTTTTAAGTGTACAATTAGCTTTTTTAACGGAGTCACCTAGTGCAG,8190 fluorescence intensity (a.u.)
3,CTGGGAGGGAGGGGAGGGAGCGCCGCCTTTGCCACTATCGCGGAGTCACCTAGTGCAG,16900 fluorescence intensity (a.u.)
4,ATTTCACAGTTTTTTGACACAGTTTTCGTTTTCCATCACTCGGAGTCACCTAGTGCAG,11600 fluorescence intensity (a.u.)
5,TTCGTTGCCTAATTTTTTTTTATACGGACACACATTTGAACGGAGTCACCTAGTGCAG,9410 fluorescence intensity (a.u.)
6,GTGGGATTGTGATTTTGTTTGTAACTAGTTATGTATCCAACGGAGTCACCTAGTGCAG,10500 fluorescence intensity (a.u.)
7,ATCACTTGTTTGCTTATTATTTACATATATGGTATTCACTCGGAGTCACCTAGTGCAG,10200 fluorescence intensity (a.u.)
8,CTTTCCCTTGCTCGTGTCGCCATGTAGGCTGTTGAGTTGGCGGAGTCACCTAGTGCAG,8690 fluorescence intensity (a.u.)
9,CCCGTGCTCTTTGTAGATTTACTACCTTTGGACTTGACCTCGGAGTCACCTAGTGCAG,11200 fluorescence intensity (a.u.)
10,TGATTGAACATTGCAGCCTCATCTTTCCGATTGTGTTTGTCGGAGTCACCTAGTGCAG,9100 fluorescence intensity (a.u.)
11,TTTTGTTGCAATGCCTATTACTGTCGTATTTTTTAGACATCGGAGTCACCTAGTGCAG,11900 fluorescence intensity (a.u.)
12,CATCACTCCTTCCACCAAACCTCGATTCTCACCACTGCCCCGGAGTCACCTAGTGCAG,9100 fluorescence intensity (a.u.)
13,CCTCACGCCGTGACGCTCATAACATTTTTTTTCTCGTCATCGGAGTCACCTAGTGCAG,10500 fluorescence intensity (a.u.)
14,GCTTTTACCCGTTACGCACGGTCATCTTTTCTATTTTTATCGGAGTCACCTAGTGCAG,12500 fluorescence intensity (a.u.)
15,ATCCTCATATCGTGTATCCGTATTCGTATCCCCGTATTTGCGGAGTCACCTAGTGCAG,8230 fluorescence intensity (a.u.)
16,AAGTTTGACCAATAATAAACGTTGGACCGTACCTACTAATCGGAGTCACCTAGTGCAG,8160 fluorescence intensity (a.u.)
17,ACGACGTCGCCGACTACATCCGCTTCCGCGCCGTGTGCCGCGGAGTCACCTAGTGCAG,11500 fluorescence intensity (a.u.)
18,CTGGAGTAGGTGGAGGGGCGGCGTCAGTGCGCTAGAGCAGCGGAGTCACCTAGTGCAG,8980 fluorescence intensity (a.u.)
19,CCTATTTTTAGCACCGTTGTCTTTTGATCCACGTTTGAACCGGAGTCACCTAGTGCAG,11700 fluorescence intensity (a.u.)
20,GGCTCCGTTTTGTGTCGAATACTTTTTAGATGGTTACTCCCGGAGTCACCTAGTGCAG,9110 fluorescence intensity (a.u.)
21,AACTTGCTCTAATCCTATTCTGACGTGGCCACCCGCTCCGCGGAGTCACCTAGTGCAG,10500 fluorescence intensity (a.u.)

# Random excerpt: two entries already listed
row,Sequence,binding signal
13,CCTCACGCCGTGACGCTCATAACATTTTTTTTCTCGTCATCGGAGTCACCTAGTGCAG,10500 fluorescence intensity (a.u.)
21,AACTTGCTCTAATCCTATTCTGACGTGGCCACCCGCTCCGCGGAGTCACCTAGTGCAG,10500 fluorescence intensity (a.u.)
